Test [1] has as its target T1, cell division cycle and apoptosis regulator 1 (CCAR1) (human (endogenous in HCCLM3 and SK-Hep-1)) (UniProt Q8IX12).
T1 sequence: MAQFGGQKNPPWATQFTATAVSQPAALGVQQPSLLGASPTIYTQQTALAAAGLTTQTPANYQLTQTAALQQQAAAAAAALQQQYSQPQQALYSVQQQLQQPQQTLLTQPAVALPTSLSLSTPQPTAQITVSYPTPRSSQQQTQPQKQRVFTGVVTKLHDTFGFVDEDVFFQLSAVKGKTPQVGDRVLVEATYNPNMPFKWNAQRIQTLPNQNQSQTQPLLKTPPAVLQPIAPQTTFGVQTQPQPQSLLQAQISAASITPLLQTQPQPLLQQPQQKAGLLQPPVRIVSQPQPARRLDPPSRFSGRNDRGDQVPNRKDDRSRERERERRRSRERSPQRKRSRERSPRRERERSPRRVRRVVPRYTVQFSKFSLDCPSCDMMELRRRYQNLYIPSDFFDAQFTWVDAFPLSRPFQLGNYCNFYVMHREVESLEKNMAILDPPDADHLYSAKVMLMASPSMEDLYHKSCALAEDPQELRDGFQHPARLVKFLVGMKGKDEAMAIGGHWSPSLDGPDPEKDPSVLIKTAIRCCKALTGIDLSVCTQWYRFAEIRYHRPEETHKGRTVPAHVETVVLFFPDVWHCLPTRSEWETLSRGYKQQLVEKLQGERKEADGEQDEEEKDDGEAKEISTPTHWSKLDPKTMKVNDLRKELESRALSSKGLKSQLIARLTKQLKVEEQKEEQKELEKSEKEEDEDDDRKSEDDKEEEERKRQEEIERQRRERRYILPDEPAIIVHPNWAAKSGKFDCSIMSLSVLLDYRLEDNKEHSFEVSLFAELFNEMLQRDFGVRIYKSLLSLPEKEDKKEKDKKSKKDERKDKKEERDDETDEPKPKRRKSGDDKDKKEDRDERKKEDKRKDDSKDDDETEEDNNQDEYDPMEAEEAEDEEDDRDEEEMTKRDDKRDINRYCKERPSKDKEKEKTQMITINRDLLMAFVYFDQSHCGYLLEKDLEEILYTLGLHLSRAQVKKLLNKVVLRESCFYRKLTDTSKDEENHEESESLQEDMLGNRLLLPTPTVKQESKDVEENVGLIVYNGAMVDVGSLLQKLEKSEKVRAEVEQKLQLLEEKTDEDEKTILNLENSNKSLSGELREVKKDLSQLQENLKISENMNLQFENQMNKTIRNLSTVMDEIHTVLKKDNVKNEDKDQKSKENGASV
Put plainly: co-IP; extracts of HCCLM3 or SK-Hep-1 cells; endogenous proteins; precipitated with anti-β-catenin or anti-CCAR1 antibodies, detected by blot.

Sequences of proteins named here, by UniProt entry; tags and fusion partners are left off.
UniProt P35222: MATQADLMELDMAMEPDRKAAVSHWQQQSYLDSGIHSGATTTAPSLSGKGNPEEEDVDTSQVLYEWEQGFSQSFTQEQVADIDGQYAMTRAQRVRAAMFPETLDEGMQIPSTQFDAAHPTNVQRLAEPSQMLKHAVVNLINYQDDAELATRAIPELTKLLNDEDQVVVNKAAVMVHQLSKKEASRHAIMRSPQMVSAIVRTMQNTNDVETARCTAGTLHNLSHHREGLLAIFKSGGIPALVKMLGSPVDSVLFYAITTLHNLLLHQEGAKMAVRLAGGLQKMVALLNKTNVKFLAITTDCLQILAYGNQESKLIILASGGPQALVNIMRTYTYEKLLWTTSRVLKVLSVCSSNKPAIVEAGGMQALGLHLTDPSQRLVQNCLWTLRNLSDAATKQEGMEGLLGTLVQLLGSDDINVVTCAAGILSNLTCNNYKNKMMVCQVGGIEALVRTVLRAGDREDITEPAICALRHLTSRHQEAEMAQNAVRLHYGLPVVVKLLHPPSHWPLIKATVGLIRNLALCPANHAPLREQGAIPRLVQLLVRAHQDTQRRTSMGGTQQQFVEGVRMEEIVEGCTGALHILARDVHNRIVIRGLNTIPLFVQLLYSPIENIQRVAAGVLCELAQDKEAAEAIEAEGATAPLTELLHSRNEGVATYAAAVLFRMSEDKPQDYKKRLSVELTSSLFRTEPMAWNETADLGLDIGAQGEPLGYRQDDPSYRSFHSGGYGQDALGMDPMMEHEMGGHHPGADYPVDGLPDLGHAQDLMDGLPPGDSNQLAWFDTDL

Test [2] deals with β-catenin (human (endogenous in HCCLM3 and SK-Hep-1)) (UniProt P35222). The description is as above.

No constants are given. Whether binding was seen depends on the method and setting. Binding seen in cells or lysates may run through a third protein. Some entries that bind do so weakly or less than the wild type.

β-catenin (from UniProt P35222 1-781): in test [1], the binding entry is listed as “binds”.

B1: cell division cycle and apoptosis regulator 1 (CCAR1) (protein, UniProt Q8IX12 1-1150)
chain: MAQFGGQKNPPWATQFTATAVSQPAALGVQQPSLLGASPTIYTQQTALAAAGLTTQTPANYQLTQTAALQQQAAAAAAALQQQYSQPQQALYSVQQQLQQPQQTLLTQPAVALPTSLSLSTPQPTAQITVSYPTPRSSQQQTQPQKQRVFTGVVTKLHDTFGFVDEDVFFQLSAVKGKTPQVGDRVLVEATYNPNMPFKWNAQRIQTLPNQNQSQTQPLLKTPPAVLQPIAPQTTFGVQTQPQPQSLLQAQISAASITPLLQTQPQPLLQQPQQKAGLLQPPVRIVSQPQPARRLDPPSRFSGRNDRGDQVPNRKDDRSRERERERRRSRERSPQRKRSRERSPRRERERSPRRVRRVVPRYTVQFSKFSLDCPSCDMMELRRRYQNLYIPSDFFDAQFTWVDAFPLSRPFQLGNYCNFYVMHREVESLEKNMAILDPPDADHLYSAKVMLMASPSMEDLYHKSCALAEDPQELRDGFQHPARLVKFLVGMKGKDEAMAIGGHWSPSLDGPDPEKDPSVLIKTAIRCCKALTGIDLSVCTQWYRFAEIRYHRPEETHKGRTVPAHVETVVLFFPDVWHCLPTRSEWETLSRGYKQQLVEKLQGERKEADGEQDEEEKDDGEAKEISTPTHWSKLDPKTMKVNDLRKELESRALSSKGLKSQLIARLTKQLKVEEQKEEQKELEKSEKEEDEDDDRKSEDDKEEEERKRQEEIERQRRERRYILPDEPAIIVHPNWAAKSGKFDCSIMSLSVLLDYRLEDNKEHSFEVSLFAELFNEMLQRDFGVRIYKSLLSLPEKEDKKEKDKKSKKDERKDKKEERDDETDEPKPKRRKSGDDKDKKEDRDERKKEDKRKDDSKDDDETEEDNNQDEYDPMEAEEAEDEEDDRDEEEMTKRDDKRDINRYCKERPSKDKEKEKTQMITINRDLLMAFVYFDQSHCGYLLEKDLEEILYTLGLHLSRAQVKKLLNKVVLRESCFYRKLTDTSKDEENHEESESLQEDMLGNRLLLPTPTVKQESKDVEENVGLIVYNGAMVDVGSLLQKLEKSEKVRAEVEQKLQLLEEKTDEDEKTILNLENSNKSLSGELREVKKDLSQLQENLKISENMNLQFENQMNKTIRNLSTVMDEIHTVLKKDNVKNEDKDQKSKENGASV
Turning to B1, the binding entry in test [2] is recorded as “binds”.
